The source of these data is paper PMC7819943, “Rice protein-binding microarrays: a tool to detect cis-acting elements near promoter regions in rice”.

This is one part of the list.

The target of this experiment is T1, OsSMF1 (Oryza sativa, UniProt Q6ZLB0 1-436).
T1 sequence: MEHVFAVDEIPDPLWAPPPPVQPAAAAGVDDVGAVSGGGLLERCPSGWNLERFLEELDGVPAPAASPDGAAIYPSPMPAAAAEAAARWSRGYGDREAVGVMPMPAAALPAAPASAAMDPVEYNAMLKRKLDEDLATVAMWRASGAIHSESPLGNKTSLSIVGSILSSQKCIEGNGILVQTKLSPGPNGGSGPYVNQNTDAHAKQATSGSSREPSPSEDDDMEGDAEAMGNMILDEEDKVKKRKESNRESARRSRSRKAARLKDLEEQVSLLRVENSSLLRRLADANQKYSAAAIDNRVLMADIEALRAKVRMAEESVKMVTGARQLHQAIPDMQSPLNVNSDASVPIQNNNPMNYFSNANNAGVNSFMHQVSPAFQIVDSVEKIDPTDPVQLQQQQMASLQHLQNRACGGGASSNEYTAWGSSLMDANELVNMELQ
The experiment can be described thus: protein-binding microarray (RPBM); PBS, 2% BSA, 51.3 ng/ul salmon testes DNA, 50 uM zinc acetate, 200 nM TF, 25 C, 1 h; high values mean tight binding. Conditions: protein: recombinant; tags: N-terminal polyhistidine and DsRed monomer fusion (pET32a); chain copies: 2; label: CyDye5-dUTP incorporated in the synthesized complementary strand; 3' TTTTT single-stranded linker to array surface; dsDNA, one strand shown. In outline:
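Ni–NTA purification followed expression in E. coli BL21-CodonPlus of transcription factors fused N-terminally to a polyhistidine tag and DsRed. At 200 nM in PBS with 2% BSA, salmon testes DNA and 50 µM zinc acetate, the protein was incubated for 1 h at 25 °C with a custom Agilent array that had been primer-extended with Cy5-dUTP and blocked with 2% BSA. After washing, the array was read on an Axon 4000B scanner. The binding signal is per-feature fluorescence intensity in arbitrary units.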
Take “AGGTTCGTGTGCTGATGTGGCAGCCTGACATGTGGGGCCCCGGAGTCACCTAGTGCAG”: the binding signal was 20700 fluorescence intensity (a.u.).

Consider “ACATGGACAGAGATTACCACACGCCACCTCACCGCATCGTCGGAGTCACCTAGTGCAG”, for which the binding signal is 9750 fluorescence intensity (a.u.).

On to “AAACCACTCAAAGCAAGCAGTGAGTGAACGTGGCAGCTACCGGAGTCACCTAGTGCAG”, for which the binding signal was 5480 fluorescence intensity (a.u.).

Take “AGCTAGTACGGCTCGACGCCCTCCGCTTGCTCCATTGAGTCGGAGTCACCTAGTGCAG”: the binding signal is 3260 fluorescence intensity (a.u.).

Take “GAATCGAATGTGTGTCAAGTGAGAATACAAATATGATGTGCGGAGTCACCTAGTGCAG”: the binding signal was 3930 fluorescence intensity (a.u.).

Consider “AACATCACCGTCATCAAGGCCACCGTCTCCGCCTCCGCCCCGGAGTCACCTAGTGCAG”, for which the binding signal is 5910 fluorescence intensity (a.u.).

Take “TGATATCTAAATGTTTGCTCATGTGCTATTTACAGCTCAGCGGAGTCACCTAGTGCAG”: the binding signal was 3810 fluorescence intensity (a.u.).

Take “ACGACGACGACCGTGACGCCGCCGACTGCTCCCTCCACTCCGGAGTCACCTAGTGCAG”: the binding signal is 4250 fluorescence intensity (a.u.).

For “ACTCCATCATCAGTACATACTACATAGTCATCAATCATCACGGAGTCACCTAGTGCAG”, the binding signal is 3580 fluorescence intensity (a.u.).

“ATCAGGCACAATCACGGCGCGCCGTGGCCGAGGCATCATCCGGAGTCACCTAGTGCAG”: the binding signal was 3620 fluorescence intensity (a.u.).

In the case of “TATATATGCGGCACCACGCGGTCACGCACCCGCACGGGCACGGAGTCACCTAGTGCAG”, the binding signal is 4850 fluorescence intensity (a.u.).

Turning to “GTCATGCTTCTGCGCTGCGGTCTGCATTGTCACGACGGATCGGAGTCACCTAGTGCAG”, the binding signal is 3940 fluorescence intensity (a.u.).

On to “ACGGGGTGGCGTCACCATCGCATCTCCCAGATCCGCCTGTCGGAGTCACCTAGTGCAG”, for which the binding signal is 11800 fluorescence intensity (a.u.).

For “AATGATAAATAGTGCAAGCAAAATATCAGAACCTCTTCTACGGAGTCACCTAGTGCAG”, the binding signal is 3240 fluorescence intensity (a.u.).

As for “CACCCTGGATGGGCCGGAATGTAGCATTTGCCATAGAAGGCGGAGTCACCTAGTGCAG”, the binding signal is 24300 fluorescence intensity (a.u.).

For “GGCGCCGGCCAAATCGTACGTCACGGTCGCCTGAGCTGCGCGGAGTCACCTAGTGCAG”, the binding signal was 6250 fluorescence intensity (a.u.).

On to “AGGATTATGTTTTGTTATTAACTGTCACCACCGTTTCATACGGAGTCACCTAGTGCAG”, for which the binding signal was 3180 fluorescence intensity (a.u.).

For “GCATTGTGCGTGGTCACCTTCGCAGCTGGAGAGGGAAAAGCGGAGTCACCTAGTGCAG”, the binding signal is 3610 fluorescence intensity (a.u.).

“CGGAATGTCTCCGCGGAAGATGCCCAAGGAATCGCCTGGCCGGAGTCACCTAGTGCAG”: the binding signal is 39500 fluorescence intensity (a.u.).

With “TGAGGCTGACGCGTGGGCCCTCCCTCGTGTGCGTGTTCTGCGGAGTCACCTAGTGCAG”, the binding signal is 5800 fluorescence intensity (a.u.).

Consider “TGTACCCAACGCCACGGCTACCCCAACGATGTTATCCCCTCGGAGTCACCTAGTGCAG”, for which the binding signal is 3670 fluorescence intensity (a.u.).

As for “GCCGCGACACCGCACCCCGCTCGCACTCGCACGTACGCGACGGAGTCACCTAGTGCAG”, the binding signal is 3220 fluorescence intensity (a.u.).

Regarding “GGCGTCGTCATGCGGAACGTCAGCAACCCGATCATCGTCGCGGAGTCACCTAGTGCAG”, the binding signal is 6800 fluorescence intensity (a.u.).

As to “CCTCACCTCACCTTACCTGAGAACACCACCCATTGCCGGACGGAGTCACCTAGTGCAG”, the binding signal was 4580 fluorescence intensity (a.u.).

On to “CGTTCGCAGCGGTGGCTGGCGTGCTGTGGTGGAGCATGTTCGGAGTCACCTAGTGCAG”, for which the binding signal is 3380 fluorescence intensity (a.u.).

Turning to “CTCCAGCATCGCCACCGGGTCCCCGTACGGGTTCTTCGGGCGGAGTCACCTAGTGCAG”, the binding signal was 3620 fluorescence intensity (a.u.).

As for “CTTTCACGCCGGCGAGCAATCCGACGCGGCAAAATCGAATCGGAGTCACCTAGTGCAG”, the binding signal is 4850 fluorescence intensity (a.u.).

As to “TCACTGTAGGTCTCTTGTGTTGACATCGAGTTCAAATTACCGGAGTCACCTAGTGCAG”, the binding signal was 7090 fluorescence intensity (a.u.).

Consider “GGAACTGGTCGTGGATTAGCCTTCTCCAACATAGGGGTGGCGGAGTCACCTAGTGCAG”, for which the binding signal is 33000 fluorescence intensity (a.u.).

Turning to “GCCGATCAGCAGGTGCTGACTCCGCGCGGGGACGAATCCGCGGAGTCACCTAGTGCAG”, the binding signal was 7890 fluorescence intensity (a.u.).

For the sequence “ACGATATGACGGAAAAGTTGGAAGTTTGTGTGTAGAAAAGCGGAGTCACCTAGTGCAG”, the binding signal is 3140 fluorescence intensity (a.u.).

As for “ATTATACATTTGATCAATTATTATACACTGGTTCTCAAAACGGAGTCACCTAGTGCAG”, the binding signal was 20300 fluorescence intensity (a.u.).

For “ATCGTCATAGTCTTCGTCAGACTTCTATCTCGATCGCTTTCGGAGTCACCTAGTGCAG”, the binding signal was 3680 fluorescence intensity (a.u.).

Consider “TAAACAAGTTGCAATGGGCAAATGTCATACTGTCATCAACCGGAGTCACCTAGTGCAG”, for which the binding signal was 3350 fluorescence intensity (a.u.).

In the case of “TAACTTTTCCGTTACATCAAATGTTTGGACACATGCATAGCGGAGTCACCTAGTGCAG”, the binding signal was 22000 fluorescence intensity (a.u.).

As for “CTTTGAAATTGCGTAATATCAAAATTGCATCTATTTTATCCGGAGTCACCTAGTGCAG”, the binding signal was 14700 fluorescence intensity (a.u.).

Consider “ATTCACATCCCGGAAGCAGCTAACAAATTTCAGGGTAAAGCGGAGTCACCTAGTGCAG”, for which the binding signal is 3370 fluorescence intensity (a.u.).

For the sequence “ACAGGTCAAATATTCCGAAAGTAAAATGGCCAGCAAAGCACGGAGTCACCTAGTGCAG”, the binding signal was 3190 fluorescence intensity (a.u.).

With “CCCAACCAGCGACCGCGCCATCCTTGCGTCTTGCGTATCGCGGAGTCACCTAGTGCAG”, the binding signal is 3180 fluorescence intensity (a.u.).

For the sequence “GAATTTAGGGAGTAGCCTTGGTCATGGTCAAGTTCAGAAACGGAGTCACCTAGTGCAG”, the binding signal is 3820 fluorescence intensity (a.u.).

For the sequence “ACGTAATGACATGTAAAGCGTTATGTAGATGCCACGTGGACGGAGTCACCTAGTGCAG”, the binding signal was 29400 fluorescence intensity (a.u.).

Take “TGTGAGGTGGGGTCGGGGTGGAAGTGGGTGAGGAGGGGTGCGGAGTCACCTAGTGCAG”: the binding signal was 22700 fluorescence intensity (a.u.).
